Results: US20240247252A1, “NOVEL COMPOUNDS FOR THE DEVELOPMENT OF REVERSIBLE COVALENT DRUGS” (The Trustees of Boston College, priority 2023, published 2024)
At least one peptide structure holds a part that was inferred or is arguable (an end, a ring closure or a residue). Positions of bridges follow the written chain, without caps; N, C: chain ends. Non-standard residues stand in square brackets, D forms with d. Residues, ends and D or L forms follow the SMILES beside them. *: point of attachment. X1 = O=Cc1ccccc1NCc1cc(C(=O)*)ccc1B(O)O; Dap = NC[C@H](N)C(=O)O

Experiments:
[1] = test system: SrtA on live S. aureus cells; experiment: SrtA inhibition on live S. aureus cells, labeling by fluorescent SrtA substrate FAM-GSLPETGGS, flow cytometry; assay type: cell-based, Staphylococcus aureus; details: live S. aureus in LB media, read-out: IC50 of SrtA-mediated fluorescence labeling
Procedure: The peptides for SrtA inhibition on live S. aureus cells was further tested. A fluorescently labeled SrtA substrate (FAM-GSLPETGGS) was mixed with S. aureus in LB media with or without a peptide inhibitor. The SrtA-mediated bacterial labeling was assessed using fluorescence microscopy and flow cytometry.

[2] = test system: SrtA on live S. aureus cells; experiment: Long-lasting SrtA inhibition on S. aureus cells after washing away unbound inhibitor; assay type: cell-based, Staphylococcus aureus; details: unbound inhibitor washed away before substrate added, flow cytometry after 6 hours of incubation
Procedure: To test this hypothesis, the S. aureus cells was treated with P5 and then the unbound inhibitor was washed away before the fluorescent SrtA substrate was added. The S. aureus cells were subjected to flow cytometry analysis after 6 hours of incubation.

In the case of CC[C@H](C)[C@@H]1NC(=O)[C@H](CC(C)C)NC(=O)[C@@H](NC(=O)[C@H](C)NC(C)=O)CSSC[C@@H](C(=O)NCC(=O)NCC(=O)NCC(=O)N[C@@H](CNC(=O)c2ccc(B(O)O)c(CNc3ccccc3C=O)c2)C(N)=O)NC(=O)CNC(=O)CNC(=O)[C@H](Cc2c[nH]c3ccccc23)NC(=O)[C@H]([C@@H](C)O)NC(=O)[C@@H]2CCCN2C1=O [Compound P5] (Ac-ACLIPTWGGCGGG[Dap](X1)-NH2; disulfide 2-10), the IC50 [1] is reported as 2.9 µM and the “inhibition of SrtA-mediated fluorescence labeling after washing” value [2] is reported as “efficiently inhibited”.
CC[C@H](C)[C@@H]1NC(=O)[C@H](CC(C)C)NC(=O)[C@@H](NC(=O)[C@H](C)N)CSSC[C@@H](C(N)=O)NC(=O)CNC(=O)CNC(=O)[C@H](Cc2c[nH]c3ccccc23)NC(=O)[C@H]([C@@H](C)O)NC(=O)[C@@H]2CCCN2C1=O [Compound W7] (H-ACLIPTWGGC-NH2; disulfide 2-10) was tested, and the IC50 [1] was 10.7 µM and the “inhibition of SrtA-mediated fluorescence labeling after washing” value [2] was “marginal reduction”.
